# This is one part of the list.
# The chains behind the UniProt entries cited, without tags or fusion partners. Where a name states a change or a piece, a line headed by the entry shows the natural chain unless it says otherwise.
# UniProt Q5MNZ9: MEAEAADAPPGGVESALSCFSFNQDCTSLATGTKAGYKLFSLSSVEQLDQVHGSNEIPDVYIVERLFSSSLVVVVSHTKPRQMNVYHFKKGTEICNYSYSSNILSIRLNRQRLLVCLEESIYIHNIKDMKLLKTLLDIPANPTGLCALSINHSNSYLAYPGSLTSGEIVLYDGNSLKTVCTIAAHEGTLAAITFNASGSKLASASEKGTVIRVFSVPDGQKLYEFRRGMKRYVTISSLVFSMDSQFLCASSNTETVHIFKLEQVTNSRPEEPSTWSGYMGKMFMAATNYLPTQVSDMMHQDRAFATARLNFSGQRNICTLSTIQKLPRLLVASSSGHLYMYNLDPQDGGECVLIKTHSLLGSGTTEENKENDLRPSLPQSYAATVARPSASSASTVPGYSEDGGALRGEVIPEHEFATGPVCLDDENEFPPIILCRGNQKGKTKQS
# UniProt Q14191, whole entry, looked up: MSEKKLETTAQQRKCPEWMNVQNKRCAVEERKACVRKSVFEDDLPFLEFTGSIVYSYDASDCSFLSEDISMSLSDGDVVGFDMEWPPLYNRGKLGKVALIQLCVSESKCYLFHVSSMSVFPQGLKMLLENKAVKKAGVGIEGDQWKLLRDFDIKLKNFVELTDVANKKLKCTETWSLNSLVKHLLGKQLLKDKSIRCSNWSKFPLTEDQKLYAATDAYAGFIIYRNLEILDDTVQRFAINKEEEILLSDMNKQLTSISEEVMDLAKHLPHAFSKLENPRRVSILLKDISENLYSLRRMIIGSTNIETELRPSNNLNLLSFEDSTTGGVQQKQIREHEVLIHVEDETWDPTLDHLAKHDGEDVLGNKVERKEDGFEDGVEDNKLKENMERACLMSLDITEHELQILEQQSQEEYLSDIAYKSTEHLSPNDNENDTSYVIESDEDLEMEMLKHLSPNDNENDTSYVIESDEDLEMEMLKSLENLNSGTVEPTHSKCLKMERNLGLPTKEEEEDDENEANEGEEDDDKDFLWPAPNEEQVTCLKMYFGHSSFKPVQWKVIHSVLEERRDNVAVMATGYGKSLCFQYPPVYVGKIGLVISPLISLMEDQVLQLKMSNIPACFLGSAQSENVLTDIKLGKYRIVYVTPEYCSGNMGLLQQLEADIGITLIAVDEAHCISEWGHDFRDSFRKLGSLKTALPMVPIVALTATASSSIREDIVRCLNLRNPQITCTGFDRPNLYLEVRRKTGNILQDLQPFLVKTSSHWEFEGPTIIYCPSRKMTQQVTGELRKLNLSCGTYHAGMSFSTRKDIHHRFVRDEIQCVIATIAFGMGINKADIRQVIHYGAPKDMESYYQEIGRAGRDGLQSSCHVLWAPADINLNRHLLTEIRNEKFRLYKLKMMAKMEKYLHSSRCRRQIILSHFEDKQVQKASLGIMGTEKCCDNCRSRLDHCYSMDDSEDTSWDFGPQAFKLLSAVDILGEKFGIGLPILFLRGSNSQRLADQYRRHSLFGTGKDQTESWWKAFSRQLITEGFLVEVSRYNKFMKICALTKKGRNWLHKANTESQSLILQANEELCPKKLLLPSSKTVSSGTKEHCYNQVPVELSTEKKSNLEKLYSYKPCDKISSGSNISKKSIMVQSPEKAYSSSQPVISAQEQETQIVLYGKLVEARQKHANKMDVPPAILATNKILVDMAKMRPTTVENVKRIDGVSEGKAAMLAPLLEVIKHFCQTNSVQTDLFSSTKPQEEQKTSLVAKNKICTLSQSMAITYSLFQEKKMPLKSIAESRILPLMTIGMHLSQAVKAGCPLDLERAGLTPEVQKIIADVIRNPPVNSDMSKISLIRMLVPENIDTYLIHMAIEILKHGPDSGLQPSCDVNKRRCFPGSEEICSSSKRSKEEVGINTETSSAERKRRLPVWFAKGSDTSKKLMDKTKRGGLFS
# UniProt O75554: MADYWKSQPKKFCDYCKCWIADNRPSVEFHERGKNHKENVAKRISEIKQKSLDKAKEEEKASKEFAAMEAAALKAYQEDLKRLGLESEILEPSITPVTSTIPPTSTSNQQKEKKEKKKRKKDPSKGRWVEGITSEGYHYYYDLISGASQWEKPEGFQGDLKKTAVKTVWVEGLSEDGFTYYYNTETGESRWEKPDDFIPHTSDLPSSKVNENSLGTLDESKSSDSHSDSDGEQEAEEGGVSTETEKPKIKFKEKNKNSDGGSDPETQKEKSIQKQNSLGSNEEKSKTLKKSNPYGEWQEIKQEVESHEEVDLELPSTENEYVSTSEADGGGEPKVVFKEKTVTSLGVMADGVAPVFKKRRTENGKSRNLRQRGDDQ
# UniProt Q8IWB7: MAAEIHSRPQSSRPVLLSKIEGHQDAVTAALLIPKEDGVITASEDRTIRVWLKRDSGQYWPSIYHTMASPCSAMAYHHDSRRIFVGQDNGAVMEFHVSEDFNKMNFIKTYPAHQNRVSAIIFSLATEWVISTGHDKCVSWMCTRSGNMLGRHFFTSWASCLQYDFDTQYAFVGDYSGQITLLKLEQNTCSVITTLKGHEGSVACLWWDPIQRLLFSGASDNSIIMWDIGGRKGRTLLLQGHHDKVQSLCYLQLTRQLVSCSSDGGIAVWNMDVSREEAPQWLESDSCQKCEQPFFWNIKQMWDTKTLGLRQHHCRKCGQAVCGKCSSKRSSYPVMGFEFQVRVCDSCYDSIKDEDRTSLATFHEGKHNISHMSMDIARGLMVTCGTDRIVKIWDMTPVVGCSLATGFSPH
# UniProt Q9P2S5: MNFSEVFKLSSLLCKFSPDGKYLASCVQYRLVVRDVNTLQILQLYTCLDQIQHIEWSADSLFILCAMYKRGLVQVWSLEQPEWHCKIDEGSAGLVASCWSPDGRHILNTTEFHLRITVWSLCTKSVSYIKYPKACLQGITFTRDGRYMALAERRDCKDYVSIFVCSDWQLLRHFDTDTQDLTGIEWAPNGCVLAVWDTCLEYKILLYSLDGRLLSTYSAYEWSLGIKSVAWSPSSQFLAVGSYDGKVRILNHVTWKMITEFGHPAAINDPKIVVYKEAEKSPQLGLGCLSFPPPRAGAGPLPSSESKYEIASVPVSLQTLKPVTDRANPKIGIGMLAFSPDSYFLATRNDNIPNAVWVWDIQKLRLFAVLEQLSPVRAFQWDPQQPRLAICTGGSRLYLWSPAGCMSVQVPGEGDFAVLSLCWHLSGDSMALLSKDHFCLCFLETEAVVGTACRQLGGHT
# UniProt Q96JC1: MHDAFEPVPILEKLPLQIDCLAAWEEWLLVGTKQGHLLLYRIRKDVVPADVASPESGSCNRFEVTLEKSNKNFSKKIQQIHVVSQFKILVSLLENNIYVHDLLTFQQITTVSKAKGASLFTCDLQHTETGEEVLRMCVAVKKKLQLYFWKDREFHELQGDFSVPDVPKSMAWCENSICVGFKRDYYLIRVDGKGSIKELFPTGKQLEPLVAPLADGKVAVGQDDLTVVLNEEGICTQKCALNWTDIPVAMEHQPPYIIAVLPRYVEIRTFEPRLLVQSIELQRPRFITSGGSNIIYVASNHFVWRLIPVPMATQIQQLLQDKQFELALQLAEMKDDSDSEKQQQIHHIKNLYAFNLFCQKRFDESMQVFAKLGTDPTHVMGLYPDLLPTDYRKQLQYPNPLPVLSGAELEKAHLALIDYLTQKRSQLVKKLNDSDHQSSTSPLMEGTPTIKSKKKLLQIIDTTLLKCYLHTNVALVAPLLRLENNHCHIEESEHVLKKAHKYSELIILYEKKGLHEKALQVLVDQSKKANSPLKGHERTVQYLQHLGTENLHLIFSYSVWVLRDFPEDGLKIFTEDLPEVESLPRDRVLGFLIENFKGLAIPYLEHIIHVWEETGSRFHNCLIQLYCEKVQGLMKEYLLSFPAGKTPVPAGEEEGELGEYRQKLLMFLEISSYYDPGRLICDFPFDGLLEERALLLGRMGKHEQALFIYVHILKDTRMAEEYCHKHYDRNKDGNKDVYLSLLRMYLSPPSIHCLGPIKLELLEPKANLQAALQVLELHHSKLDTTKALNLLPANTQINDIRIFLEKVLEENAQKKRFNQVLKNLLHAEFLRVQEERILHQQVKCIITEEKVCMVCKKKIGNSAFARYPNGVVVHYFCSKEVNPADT
# UniProt Q01831: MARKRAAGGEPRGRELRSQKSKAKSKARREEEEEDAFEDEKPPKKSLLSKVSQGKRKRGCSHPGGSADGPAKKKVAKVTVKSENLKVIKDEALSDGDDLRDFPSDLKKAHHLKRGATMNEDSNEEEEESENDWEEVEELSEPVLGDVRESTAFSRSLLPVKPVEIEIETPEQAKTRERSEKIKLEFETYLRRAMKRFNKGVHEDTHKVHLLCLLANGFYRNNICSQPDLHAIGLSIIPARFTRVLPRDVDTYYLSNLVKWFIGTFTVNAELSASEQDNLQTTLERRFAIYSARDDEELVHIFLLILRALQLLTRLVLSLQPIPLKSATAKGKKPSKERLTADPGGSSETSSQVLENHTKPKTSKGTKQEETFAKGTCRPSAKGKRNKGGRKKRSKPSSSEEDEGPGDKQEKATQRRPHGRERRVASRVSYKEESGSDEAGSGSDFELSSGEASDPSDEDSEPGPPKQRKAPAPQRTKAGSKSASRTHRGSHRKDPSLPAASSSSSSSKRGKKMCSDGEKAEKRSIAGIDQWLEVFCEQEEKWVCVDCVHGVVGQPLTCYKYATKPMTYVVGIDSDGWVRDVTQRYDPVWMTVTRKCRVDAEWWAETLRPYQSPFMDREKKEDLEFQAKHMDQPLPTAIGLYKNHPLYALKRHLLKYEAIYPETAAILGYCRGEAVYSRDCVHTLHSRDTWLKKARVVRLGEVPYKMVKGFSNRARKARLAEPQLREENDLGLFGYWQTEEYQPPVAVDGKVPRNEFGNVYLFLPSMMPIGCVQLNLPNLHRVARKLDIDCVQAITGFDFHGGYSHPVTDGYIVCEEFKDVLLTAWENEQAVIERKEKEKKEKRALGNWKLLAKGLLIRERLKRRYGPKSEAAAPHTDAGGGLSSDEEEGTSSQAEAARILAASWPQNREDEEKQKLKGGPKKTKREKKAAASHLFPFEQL
# UniProt Q96GC9: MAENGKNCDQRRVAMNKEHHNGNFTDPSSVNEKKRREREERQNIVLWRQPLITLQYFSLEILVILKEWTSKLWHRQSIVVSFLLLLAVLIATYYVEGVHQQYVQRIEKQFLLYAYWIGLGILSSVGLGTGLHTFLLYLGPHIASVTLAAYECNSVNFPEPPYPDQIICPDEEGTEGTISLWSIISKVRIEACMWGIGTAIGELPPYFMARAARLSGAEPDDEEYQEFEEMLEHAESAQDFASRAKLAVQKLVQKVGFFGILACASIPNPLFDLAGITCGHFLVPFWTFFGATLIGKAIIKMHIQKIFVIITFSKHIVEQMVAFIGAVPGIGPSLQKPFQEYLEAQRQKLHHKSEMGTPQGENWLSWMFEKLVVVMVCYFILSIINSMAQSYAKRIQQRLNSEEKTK
# UniProt Q9Y2W2: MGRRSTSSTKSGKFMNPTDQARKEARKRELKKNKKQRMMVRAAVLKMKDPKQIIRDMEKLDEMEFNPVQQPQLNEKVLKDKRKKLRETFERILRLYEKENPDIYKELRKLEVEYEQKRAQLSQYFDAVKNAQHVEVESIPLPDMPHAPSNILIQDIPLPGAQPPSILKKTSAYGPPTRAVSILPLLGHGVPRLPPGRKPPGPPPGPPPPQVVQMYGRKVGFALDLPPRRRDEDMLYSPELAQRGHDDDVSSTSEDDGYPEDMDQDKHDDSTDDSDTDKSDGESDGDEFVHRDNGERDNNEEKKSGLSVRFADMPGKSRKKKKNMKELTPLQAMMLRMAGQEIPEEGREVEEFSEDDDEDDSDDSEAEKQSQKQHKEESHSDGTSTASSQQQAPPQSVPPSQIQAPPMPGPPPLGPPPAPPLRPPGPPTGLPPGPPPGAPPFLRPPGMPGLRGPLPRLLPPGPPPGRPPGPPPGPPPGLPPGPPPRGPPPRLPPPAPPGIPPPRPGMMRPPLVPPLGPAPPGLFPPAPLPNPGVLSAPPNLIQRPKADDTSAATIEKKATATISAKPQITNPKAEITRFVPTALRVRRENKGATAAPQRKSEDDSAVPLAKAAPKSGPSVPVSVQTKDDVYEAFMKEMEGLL
# UniProt Q96P53: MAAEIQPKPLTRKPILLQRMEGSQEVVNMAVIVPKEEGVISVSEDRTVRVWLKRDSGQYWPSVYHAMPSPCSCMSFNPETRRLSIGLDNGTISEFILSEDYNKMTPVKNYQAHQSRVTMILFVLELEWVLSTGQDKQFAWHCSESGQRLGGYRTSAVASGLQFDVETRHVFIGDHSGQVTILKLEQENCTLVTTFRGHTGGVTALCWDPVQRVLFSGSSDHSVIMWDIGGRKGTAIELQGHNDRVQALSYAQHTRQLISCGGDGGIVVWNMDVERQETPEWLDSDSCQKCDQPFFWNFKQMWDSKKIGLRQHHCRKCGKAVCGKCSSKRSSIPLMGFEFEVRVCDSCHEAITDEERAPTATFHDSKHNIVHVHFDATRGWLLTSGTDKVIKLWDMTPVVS
# Columns and labels:
# Experiment in all cases: log2 fold change, soluble protein after heating vs DMSO (PISA); higher = thermal stabilisation; K562 lysate, 10 uM; active = over 0.2 and 3.5 SD of the protein, either way, in both replicates (recomputed)
# lapatinib = compound: CS(=O)(=O)CCNCc1ccc(-c2ccc3ncnc(Nc4ccc(OCc5cccc(F)c5)c(Cl)c4)c3c2)o1 [lapatinib]
# In short: (§1)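 Pellets of K562 cells were dounce-homogenised in PBS pH 7.4 with 1 mM MgCl2, and the crude extract was held at 1 mg/mL protein for a 30 min treatment with 10 μM compound. Aliquots were heated for 3 min over 48°C-58°C and pooled before NP-40 was added to 0.5% at 4°C. The supernatant from 21,000xg for 90 min was quantified by TMTpro 16plex LC-MS/MS with channel sums equalised. Values are reported from duplicates as log-two fold change in thermal stability relative to solvent controls.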
# pictilisib = compound: CS(=O)(=O)N1CCN(Cc2cc3nc(-c4cccc5[nH]ncc45)nc(N4CCOCC4)c3s2)CC1 [pictilisib]
# In short: as §1
# crizotinib = compound: C[C@@H](Oc1cc(-c2cnn(C3CCNCC3)c2)cnc1N)c1c(Cl)ccc(F)c1Cl [crizotinib]
# In short: as §1
# [1] = compound: C[C@H](C1=CC=C(C=C1)C(=O)NC2=C3C=CNC3=NC=C2)N
# In short: as §1
# duvelisib = compound: C[C@H](Nc1ncnc2nc[nH]c12)c1cc2cccc(Cl)c2c(=O)n1-c1ccccc1 [duvelisib]
# In short: as §1
# gandotinib = compound: Cc1cc(Nc2cc(CN3CCOCC3)c3nc(C)c(Cc4ccc(Cl)cc4F)n3n2)n[nH]1 [gandotinib]
# In short: as §1
# tozasertib = compound: Cc1cc(Nc2cc(N3CCN(C)CC3)nc(Sc3ccc(NC(=O)C4CC4)cc3)n2)n[nH]1 [tozasertib]
# In short: as §1
# doramapimod = compound: Cc1ccc(-n2nc(C(C)(C)C)cc2NC(=O)Nc2ccc(OCCN3CCOCC3)c3ccccc23)cc1 [doramapimod]
# In short: as §1
# bafetinib = compound: Cc1ccc(NC(=O)c2ccc(CN3CC[C@H](N(C)C)C3)c(C(F)(F)F)c2)cc1Nc1nccc(-c2cncnc2)n1 [bafetinib]
# In short: as §1
# [2] = compound: Cc1cccc(CC(=O)N2CCc3c2ccc(-c2cn(C)c4ncnc(N)c24)c3F)n1
# In short: as §1
Target,log2 fold change (lapatinib),log2 fold change (pictilisib),log2 fold change (crizotinib),log2 fold change [1],log2 fold change (duvelisib),log2 fold change (gandotinib),log2 fold change (tozasertib),log2 fold change (doramapimod),log2 fold change (bafetinib),log2 fold change [2]
VPS35L (UniProt Q7Z3J2),inactive: -0.016,inactive: -0.003,inactive: -0.028,inactive: -0.025,inactive: 0.02,inactive: -0.029,inactive: 0.026,inactive: 0.02,inactive: -0.052,inactive: 0.065
WIPI2 (UniProt Q9Y4P8),inactive: 0.006,inactive: -0.024,inactive: -0.02,inactive: -0.086,inactive: -0.008,inactive: 0.089,inactive: -0.003,inactive: 0.098,inactive: -0.025,inactive: 0.035
VPS13C (UniProt Q709C8),inactive: -0.008,inactive: 0.023,inactive: 0.003,inactive: -0.065,inactive: 0.021,inactive: -0.055,inactive: 0.052,inactive: -0.006,inactive: -0.054,inactive: 0.213
VPS13D (UniProt Q5THJ4),inactive: -0.071,inactive: 0.002,inactive: -0.062,inactive: -0.039,inactive: -0.028,inactive: -0.115,inactive: 0.054,inactive: 0.103,inactive: 0.01,inactive: 0.157
WIPI1 (UniProt Q5MNZ9),inactive: -0.021,inactive: -0.003,inactive: 0.058,inactive: -0.013,inactive: -0.014,inactive: 0.017,inactive: 0.039,inactive: -0.013,inactive: -0.038,inactive: -0.038
WASHC2C (UniProt Q9Y4E1),inactive: -0.01,inactive: -0.026,inactive: -0.05,inactive: -0.081,inactive: 0.011,inactive: 0.128,inactive: 0.046,inactive: 0.027,inactive: 0.03,inactive: 0.126
XAB2 (UniProt Q9HCS7),inactive: -0.02,inactive: -0.051,inactive: -0.096,inactive: 0.025,inactive: 0.038,inactive: -0.055,inactive: -0.073,inactive: 0.01,inactive: 0.065,inactive: 0.028
WRN (UniProt Q14191),inactive: -0.008,inactive: 0.006,inactive: -0.031,inactive: -0.042,inactive: -0.034,inactive: -0.008,inactive: 0.037,inactive: 0.02,inactive: -0.064,inactive: 0.073
WBP4 (UniProt O75554),inactive: 0.018,inactive: 0.004,inactive: -0.004,inactive: -0.021,inactive: 0.069,inactive: 0.041,inactive: -0.011,inactive: -0.009,inactive: 0.023,inactive: 0.042
WDR55 (UniProt Q9H6Y2),inactive: -0.055,inactive: 0.021,inactive: -0.008,inactive: -0.048,inactive: 0.057,inactive: 0.003,inactive: 0.014,inactive: 0.092,inactive: -0.165,inactive: 0.063
WDFY1 (UniProt Q8IWB7),inactive: 0.035,inactive: 0.002,inactive: 0.012,inactive: -0.006,inactive: 0.079,inactive: 0.104,inactive: 0.003,inactive: 0.06,inactive: -0.007,inactive: 0.032
WRAP73 (UniProt Q9P2S5),inactive: 0.003,inactive: -0.071,inactive: -0.07,inactive: -0.067,inactive: -0.075,inactive: 0.063,inactive: 0.014,inactive: 0.021,inactive: -0.043,inactive: 0
WDR47 (UniProt O94967),inactive: 0.006,inactive: -0.128,inactive: -0.026,inactive: 0.062,inactive: -0.007,inactive: 0.187,inactive: -0.025,inactive: 0,inactive: -0.027,inactive: -0.008
VPS39 (UniProt Q96JC1),inactive: -0.018,inactive: -0.018,inactive: -0.066,active: 0.603,inactive: 0.015,inactive: -0.169,inactive: 0.021,inactive: 0.015,inactive: -0.045,inactive: -0.229
WDR13 (UniProt Q9H1Z4),inactive: -0.016,inactive: -0.052,inactive: 0.035,inactive: -0.031,inactive: -0.023,inactive: -0.044,inactive: -0.005,inactive: -0.031,inactive: -0.015,inactive: 0.011
XPC (UniProt Q01831),inactive: -0.061,inactive: 0.029,inactive: -0.087,inactive: 0.059,inactive: 0.038,inactive: -0.076,inactive: 0.025,inactive: -0.026,inactive: -0.125,inactive: -0.011

Target,log2 fold change (lapatinib),log2 fold change (pictilisib),log2 fold change (crizotinib),log2 fold change [1],log2 fold change (duvelisib),log2 fold change (gandotinib),log2 fold change (tozasertib),log2 fold change (doramapimod),log2 fold change (bafetinib),log2 fold change [2]
VPS50 (UniProt Q96JG6),inactive: -0.022,inactive: 0.003,inactive: -0.054,inactive: 0.043,inactive: -0.034,inactive: -0.104,inactive: -0.003,inactive: -0.044,inactive: -0.057,inactive: -0.041
VPS52 (UniProt Q8N1B4),inactive: -0.032,inactive: 0.024,inactive: -0.025,inactive: -0.001,inactive: -0.013,inactive: -0.064,inactive: -0.022,inactive: -0.046,inactive: -0.063,inactive: 0.074
VMP1 (UniProt Q96GC9),inactive: 0.014,inactive: -0.157,inactive: -0.048,inactive: -0.196,inactive: 0.055,inactive: 0.053,inactive: -0.004,inactive: 0.05,inactive: -0.059,inactive: 0.13
WDCP (UniProt Q9H6R7),inactive: -0.048,inactive: 0.017,inactive: -0.079,inactive: 0.022,inactive: 0.038,inactive: -0.058,inactive: -0.03,inactive: -0.02,inactive: -0.027,inactive: 0.002
VTA1 (UniProt Q9NP79),inactive: -0.001,inactive: -0.027,inactive: 0.032,inactive: 0.033,inactive: -0.045,inactive: -0.067,inactive: -0.001,inactive: 0,inactive: 0.092,inactive: -0.09
WDR89 (UniProt Q96FK6),inactive: -0.015,inactive: -0.045,inactive: -0.003,inactive: -0.053,inactive: 0.082,inactive: 0.024,inactive: 0.077,inactive: 0.024,inactive: -0.062,inactive: 0.073
VPS33B (UniProt Q9H267),inactive: 0.011,inactive: -0.01,inactive: 0.008,inactive: 0.001,inactive: -0.001,inactive: -0.045,inactive: 0.006,inactive: -0.01,inactive: -0.04,inactive: 0.03
WDR92 (UniProt Q96MX6),inactive: 0.011,inactive: -0.01,inactive: 0,inactive: 0.046,inactive: 0.02,inactive: -0.019,inactive: -0.007,inactive: 0.011,inactive: -0.028,inactive: -0.012
WNK1 isoform 7 (UniProt Q9H4A3),inactive: -0.014,inactive: -0.02,inactive: 0.019,inactive: 0.018,inactive: -0.036,inactive: -0.031,inactive: 0.036,inactive: 0.009,inactive: -0.025,inactive: 0.005
WDR11 (UniProt Q9BZH6),inactive: -0.037,inactive: 0.013,inactive: -0.105,inactive: -0.266,inactive: 0.043,inactive: 0.102,inactive: 0.053,inactive: 0.053,inactive: -0.155,inactive: 0.143
WDR77 (UniProt Q9BQA1),inactive: 0.012,inactive: 0.016,inactive: -0.027,inactive: 0.014,inactive: 0.119,inactive: -0.037,inactive: -0.005,inactive: 0.008,inactive: -0.024,inactive: -0.047
XPA (UniProt P23025),inactive: -0.079,inactive: -0.091,inactive: -0.043,inactive: -0.039,inactive: 0.08,inactive: 0.014,inactive: -0.03,inactive: 0.013,inactive: -0.002,inactive: 0.035
WARS1 (UniProt G3V5U1),inactive: -0.05,inactive: -0.015,,,,,inactive: 0.213,,inactive: -0.028,
WBP11 (UniProt Q9Y2W2),inactive: 0.03,inactive: 0.001,inactive: 0.01,inactive: 0.021,inactive: 0.012,inactive: 0.087,inactive: 0.021,inactive: 0.063,inactive: -0.01,inactive: -0.016
WDFY2 (UniProt Q96P53),,,,,inactive: -0.032,,,,,

# Already shown: an excerpt of the list.
Target,log2 fold change (lapatinib),log2 fold change (pictilisib),log2 fold change (crizotinib),log2 fold change [1],log2 fold change (duvelisib),log2 fold change (gandotinib),log2 fold change (tozasertib),log2 fold change (doramapimod),log2 fold change (bafetinib),log2 fold change [2]
WARS1 (UniProt G3V5U1),inactive: -0.05,inactive: -0.015,,,,,inactive: 0.213,,inactive: -0.028,
WBP11 (UniProt Q9Y2W2),inactive: 0.03,inactive: 0.001,inactive: 0.01,inactive: 0.021,inactive: 0.012,inactive: 0.087,inactive: 0.021,inactive: 0.063,inactive: -0.01,inactive: -0.016

# Reference: the supplement of paper PMC10849652
